# Screening data, single-dose tests

Mtb cholesterol medium: 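Phenotypic screen: M. tuberculosis growth, cholesterol and DPPC medium, 4 days; the read-out is not stated. Compounds at 50 µM. The record gives no direction; compounds that gave an IC50 in retests scored well above the rest, so higher reads as more growth inhibition. About 69,000 compounds were tested under these conditions; 0.54% (about 370) showed 50% or more at least once.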
Mtb glucose medium: 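Phenotypic screen: M. tuberculosis growth, glucose 7H9 medium, 3 days; the read-out is not stated. Tested at 50 µM. Higher reads as more growth inhibition (inferred: compounds with an IC50 in retests scored well above the rest). About 69,000 compounds were tested under these conditions; 1.1% (about 760) showed 50% or more at least once.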

The filed quantity is “Percent Effect” (%). The record does not define 0% and 100%; most values in the screen are far below 50% and negative numbers occur (in some assays of this library far below -100). Compounds were drawn at random from those tested, without regard to their results. Two or more numbers in one place are separate tests of the same structure; such repeats can differ widely.

structure,Mtb cholesterol medium,Mtb glucose medium
COc1ccc(C(C#N)NC(=O)Cc2ccc(F)c(F)c2)c(OC)c1 (stereo not shown),0.3993,17
Cc1ccccc1CNC(=O)Cn1ncc2c1c(C)nn2C,-8.43,3.542
O=C(O)C(F)(F)F.O=C(O)C(F)(F)F.[H][C@@]12C[C@@H](C(=O)NC)N(C)[C@]1([H])CN(Cc1ccco1)C2,-12.05,-18.54
COc1cc2cc3c(nc2cc1OC)OCCN(CC1CC1)C3,2.033,10.45
CCC(O)CN(C)Cc1nnc2ccccn12 (stereo not shown),6.018,-5.966
CC(C)C(NCc1ccc(Cn2cncn2)cc1)c1ccc(F)cn1 (stereo not shown),-5.14,-14.53
Cc1ccc(SC2CCCC2)c(C(=O)NCc2n[nH]c(=O)[nH]2)c1,-1.855,-13.21
[H][C@@]12CCCO[C@]1([H])[C@@H](OC)CN2C(=O)c1ccc(C)o1,14.15,17.19 & -4.55
COc1ccc(OC)c(CN(Cc2ccco2)Cc2[nH]cnc2C)c1.O=C(O)CC(O)(CC(=O)O)C(=O)O,9.232 & -5.909,-24.15
COCC1CC2(CCN(C(=O)c3occc3C)CC2)CO1 (stereo not shown),9.76,18.01
O=C(c1ccsc1)N1CCCC(c2cc(C(F)(F)F)[nH]n2)C1 (stereo not shown),-19.26,2.382
Cc1nnc(NCCc2nc3ccc(F)cc3n2C)c(C#N)c1C,-8.607,-11.63
CCN(CC)Cc1cn2c(n1)CN(C1CCOC1)CC2.O=C(O)C(F)(F)F.O=C(O)C(F)(F)F (stereo not shown),-23.24,-9.159
Cc1ccsc1CN(C)Cn1nccc1-c1cccnc1,0.9346,-1.658
N#Cc1ccc(C(=O)O)nc1/C=C/c1cccc(Br)c1,8.786,26.26
[H][C@@]12CS(=O)(=O)C[C@]1([H])N(Cc1ccc(Cl)cc1)CCN2CCOC,7.661,-0.6322
Nc1nc(CC(=O)N2CCCC(CCc3cccc(F)c3)C2)cc(=O)[nH]1 (stereo not shown),-26.05,-18.77
COCCOC1CCN(C(C(=O)O)c2ccc(F)c(Cl)c2)CC1 (stereo not shown),15.73,-1.698 & 7.553
CCc1nc(CN2CCCN(C(=O)c3ccnc(C)n3)CC2)cs1,-15.03,-12.4
CN(CC(N)=O)C(=O)c1csc(Br)c1,9.103,-4.969 & -27.11
CCc1nc(C2CCCN2Cc2nccn2Cc2ccccc2)no1 (stereo not shown),0.02769,15.12
NC(=O)c1csc(C(=O)N2CCCC(n3ccnc3)C2)c1 (stereo not shown),-1.162,-1.054
O=C(O)C(F)(F)F.[H][C@@]12CCN(Cc3cc(C)on3)C[C@]1([H])O[C@@H](C(=O)N1CCC(C)CC1)C2,-2.051,8.052
COCCN1CCn2c(CN(C)C(C)C)cnc2C1.O=C(O)C(F)(F)F.O=C(O)C(F)(F)F,12.36,0.7089
CCCOc1ccc(CCC(=O)Nc2nonc2C)cc1,-10.9,26.67 & 18.38
COc1cc(N2CC[C@H](O)[C@@H]2Cc2cnn(C)c2)ncn1,-11.53,4.175
Cc1ncsc1CN1CC[C@](C)(O)[C@@H](Oc2cccc(F)c2)C1,-19.17,-23.51
CO[C@H]1CCN(C(=O)c2cc(C)on2)C[C@@H]1Cc1ccccc1,3.946,9.553
Cc1cnc(N2CCCn3c(nnc3CN(C)C(C)C)C2)nc1.O=C(O)C(F)(F)F,-10.26,-2.593
CC(C)(C)c1ncc(C(=O)NCc2ccccc2CN2CCCC2)s1,2.767,11.91
[H][C@@]12CO[C@@H](CN3CCN(C)CC3)[C@]1([H])CCN(Cc1ccncc1)C2,16.59,22.14
O=C(NCCNC(=O)c1scnc1Cl)c1ccccc1Cl,6.268,-11.23
O=C(NC1CCCC1)c1cc2c(s1)CCN2C(=O)c1ccccc1,7.162,23.29
Cc1nc(CN2CCCN(C(=O)C3(C#N)CCCCC3)CC2)cs1,-3.086,10.43
CC(C)(C)C(O)CN1CCN(CCOCC(F)(F)F)CC1 (stereo not shown),14.11,1.889 & 1.656
Cc1cnc(CN2CCN(c3ccnc(-c4ccccc4)n3)CC2)cn1,19.13,22.24
CCCNC(=O)NC(=O)CN1CCN(Cc2nccn2CC)CC1,4.946,11.83
CN1C[C@H](O)C[C@H]1c1nc(-c2ccc(OC(F)(F)F)cc2)no1,16.84,-40.28 & 3.806
CCCS(=O)(=O)N1CCC2(CCC(=O)N(Cc3ccccc3)C2)CC1,5.436,-0.54 & 2.25
CC(C)NC(=O)N1CC[C@@H](N(C)C)[C@@H]1Cc1ccncc1.O=C(O)C(F)(F)F.O=C(O)C(F)(F)F,-9.54,11.13
O=C(C1=CCCC1)N1CCC[C@]2(C[C@@H](Oc3ncccc3F)CO2)C1.O=C(O)C(F)(F)F,-6.309,13.58
Cc1ccc(-c2noc(CN3CCOC(CN(C)C)C3)n2)cc1F (stereo not shown),2.662,2.258
Cn1cccc(NC(=O)COc2ccc(Br)cc2)c1=O,-11.54,-6.79 & -1.687
CC(=O)Nc1nc(C2CCN(C(=O)C3CCC3)CC2)cs1,15.68,21.82
CC(=O)N1CC2(CCN(S(=O)(=O)N(C)C)CC2)C2(CCNC2=O)C1 (stereo not shown),11.46,-16.4
CC(C)CCN1N=C(C(=O)N2CCCCCC2)S(=O)(=O)c2ccccc21,20.87,-69.9
Cc1n[nH]c(C)c1NC(=O)CN1CCn2c(nnc2C(C)C)C1,-7.875,-1.583
CCNC(c1ccc(F)cc1)c1cccnc1 (stereo not shown),15.47,-13.53
CN(CCC(F)(F)F)C(=O)C1CCCN1C(=O)OC(C)(C)C (stereo not shown),2.318,11.49 & -2.421
Cc1csc(N2CCN(C(=O)CCn3cncn3)CC2)n1,2.508,-17.42
CN(CC(=O)NC1(C)CCS(=O)(=O)C1)Cc1ccc(Br)cc1 (stereo not shown),-17.55,-31.4
CCCn1ncc(CN2CCCCC2CCCOC)c1C (stereo not shown),-6.657 & -1.999,19.88
CN1CC(c2ccccc2)C2(CCN(C(=O)c3ccc[nH]3)CC2)C1=O (stereo not shown),-10.45,4.063 & -1.731
CCc1nc2ccccc2c(=O)n1CC1(O)CCN(C(=O)C(C)C)CC1,-8.573,8.394
CCn1c(-c2ccccc2)nn(CC(=O)NCCc2c[nH]cn2)c1=O,-35.7,-30.42
COc1ccc(C(=O)N2CCN(c3cc(CCN)nc(C)n3)CC2)cc1,-7.482 & -10.34,4.797
Cc1cc(C2CCCN(CCc3ccc4c(c3)CCO4)C2)n[nH]1 (stereo not shown),-1.889,-1.526
CCOCCNC(=O)c1cccc(S(=O)(=O)NC[C@@H]2C[C@H](F)CN2)c1,-0.1673,-3.503 & -2.104
Cc1ccc(Sc2nccn(C)c2=O)cc1,7.61,4.124
COc1ccc(CNc2c(N3CCN(C)CC3)c(=O)c2=O)cc1,5.208,-24.11 & 1.819
O=C(O)C(F)(F)F.O=C(O)C(F)(F)F.O=C(O)C(F)(F)F.[H][C@@]12CO[C@@H](CNc3ncccn3)[C@]1([H])CCN(Cc1cccc(C)n1)C2,-27.89,-27.57

The last 6 entries again:

COc1ccc(C(=O)N2CCN(c3cc(CCN)nc(C)n3)CC2)cc1 read Mtb cholesterol medium: -7.482% & -10.34%; Mtb glucose medium: 4.797%.
Cc1cc(C2CCCN(CCc3ccc4c(c3)CCO4)C2)n[nH]1 (stereo not shown) read Mtb cholesterol medium: -1.889%; Mtb glucose medium: -1.526%.
CCOCCNC(=O)c1cccc(S(=O)(=O)NC[C@@H]2C[C@H](F)CN2)c1 read Mtb cholesterol medium: -0.1673%; Mtb glucose medium: -3.503% & -2.104%.
Cc1ccc(Sc2nccn(C)c2=O)cc1 read Mtb cholesterol medium: 7.61%; Mtb glucose medium: 4.124%.
COc1ccc(CNc2c(N3CCN(C)CC3)c(=O)c2=O)cc1 read Mtb cholesterol medium: 5.208%; Mtb glucose medium: -24.11% & 1.819%.
O=C(O)C(F)(F)F.O=C(O)C(F)(F)F.O=C(O)C(F)(F)F.[H][C@@]12CO[C@@H](CNc3ncccn3)[C@]1([H])CCN(Cc1cccc(C)n1)C2 read Mtb cholesterol medium: -27.89%; Mtb glucose medium: -27.57%.

From ChEMBL document CHEMBL3988442, “University of Dundee, Small-Polar-MMV Screening Library” (2021).